The list shows a part of the results.
Key:
Experiment in all cases: log2 fold change, soluble protein after heating vs DMSO (PISA); higher = thermal stabilisation; K562 cells, 10 uM, 30 min; active = over 0.2 and 3.5 SD of the protein, either way, in both replicates (recomputed)
[1] = compound: CC1=C(C=C(C=C1)NC(=O)C2=CC(=CC=C2)C(C)(C)C#N)NC3=CC4=C(C=C3)N=CN(C4=O)C
Method in brief: (§1)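 Soluble protein was defined as the supernatant after 21,000xg for 90 min. It came from K562 cells at 2×10^6 cells/mL given 10 μM compound for 30 min, heated in aliquots for 3 min across 48°C-58°C, pooled, and extracted in PBS with 0.5% NP-40 at 4°C, and was quantified by TMTpro 16plex LC-MS/MS with equalised channel sums. Thermal stability against control samples, from duplicates, is reported as log2 fold change.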

Amino acid sequences for entries named in this document (tags omitted). A change or cut given only in a name is not applied to a line headed by its entry.
UniProt O43529: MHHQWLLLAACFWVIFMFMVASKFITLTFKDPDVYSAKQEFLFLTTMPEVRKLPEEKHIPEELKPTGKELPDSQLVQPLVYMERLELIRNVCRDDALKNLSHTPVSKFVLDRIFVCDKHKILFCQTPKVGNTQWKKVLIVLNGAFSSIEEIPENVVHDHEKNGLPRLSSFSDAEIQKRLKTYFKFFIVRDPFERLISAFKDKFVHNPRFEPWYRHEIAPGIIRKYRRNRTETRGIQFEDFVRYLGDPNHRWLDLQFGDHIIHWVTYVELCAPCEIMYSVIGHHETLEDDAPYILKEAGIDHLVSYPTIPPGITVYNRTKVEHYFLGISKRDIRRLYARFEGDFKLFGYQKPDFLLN
UniProt Q13057: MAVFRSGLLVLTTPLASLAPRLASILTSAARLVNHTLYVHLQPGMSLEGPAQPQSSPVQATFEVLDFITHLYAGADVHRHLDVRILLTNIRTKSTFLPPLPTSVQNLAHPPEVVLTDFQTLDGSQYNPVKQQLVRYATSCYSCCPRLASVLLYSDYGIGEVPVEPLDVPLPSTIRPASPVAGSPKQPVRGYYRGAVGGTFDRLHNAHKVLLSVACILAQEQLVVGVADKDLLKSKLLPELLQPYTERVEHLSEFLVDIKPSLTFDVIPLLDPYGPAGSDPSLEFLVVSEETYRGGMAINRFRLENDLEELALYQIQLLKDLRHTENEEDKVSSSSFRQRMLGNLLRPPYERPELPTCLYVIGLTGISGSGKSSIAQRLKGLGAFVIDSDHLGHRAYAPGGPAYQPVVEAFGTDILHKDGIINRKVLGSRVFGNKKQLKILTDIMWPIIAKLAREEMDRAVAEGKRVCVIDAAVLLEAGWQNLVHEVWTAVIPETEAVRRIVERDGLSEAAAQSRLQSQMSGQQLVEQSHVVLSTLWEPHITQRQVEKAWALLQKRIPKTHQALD
UniProt O75153: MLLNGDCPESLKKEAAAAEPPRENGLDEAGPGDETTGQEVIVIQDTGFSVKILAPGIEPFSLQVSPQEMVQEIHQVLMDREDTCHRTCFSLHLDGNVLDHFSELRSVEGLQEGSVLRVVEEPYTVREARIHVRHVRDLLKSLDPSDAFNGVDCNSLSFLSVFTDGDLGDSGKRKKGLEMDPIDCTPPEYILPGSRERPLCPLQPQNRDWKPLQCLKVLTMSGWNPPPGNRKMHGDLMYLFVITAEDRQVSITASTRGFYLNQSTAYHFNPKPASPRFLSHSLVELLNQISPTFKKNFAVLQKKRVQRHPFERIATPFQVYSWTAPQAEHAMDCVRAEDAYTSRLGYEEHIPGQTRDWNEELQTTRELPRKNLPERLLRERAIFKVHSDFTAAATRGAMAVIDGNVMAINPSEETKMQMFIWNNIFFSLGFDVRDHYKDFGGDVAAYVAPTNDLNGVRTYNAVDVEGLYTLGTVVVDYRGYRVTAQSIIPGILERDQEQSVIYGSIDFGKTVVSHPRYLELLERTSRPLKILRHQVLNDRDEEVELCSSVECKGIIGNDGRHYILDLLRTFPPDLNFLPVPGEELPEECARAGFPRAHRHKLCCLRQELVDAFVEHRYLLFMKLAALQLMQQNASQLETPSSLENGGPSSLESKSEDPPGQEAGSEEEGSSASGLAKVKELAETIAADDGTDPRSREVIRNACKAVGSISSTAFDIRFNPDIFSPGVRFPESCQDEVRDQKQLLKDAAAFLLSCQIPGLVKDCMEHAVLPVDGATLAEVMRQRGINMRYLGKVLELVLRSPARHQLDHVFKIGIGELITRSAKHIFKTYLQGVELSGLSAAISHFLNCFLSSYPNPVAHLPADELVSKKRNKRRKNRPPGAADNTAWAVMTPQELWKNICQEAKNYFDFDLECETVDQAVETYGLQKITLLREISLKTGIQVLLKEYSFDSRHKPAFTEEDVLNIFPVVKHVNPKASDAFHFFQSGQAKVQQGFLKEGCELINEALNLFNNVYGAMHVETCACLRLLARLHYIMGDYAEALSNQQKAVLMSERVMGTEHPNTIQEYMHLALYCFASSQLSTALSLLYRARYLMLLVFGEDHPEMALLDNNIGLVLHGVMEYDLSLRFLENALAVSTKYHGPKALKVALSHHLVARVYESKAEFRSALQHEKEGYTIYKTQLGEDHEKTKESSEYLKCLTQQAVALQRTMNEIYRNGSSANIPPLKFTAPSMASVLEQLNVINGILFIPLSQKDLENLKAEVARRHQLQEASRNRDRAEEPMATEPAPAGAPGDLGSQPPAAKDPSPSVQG
UniProt O95628: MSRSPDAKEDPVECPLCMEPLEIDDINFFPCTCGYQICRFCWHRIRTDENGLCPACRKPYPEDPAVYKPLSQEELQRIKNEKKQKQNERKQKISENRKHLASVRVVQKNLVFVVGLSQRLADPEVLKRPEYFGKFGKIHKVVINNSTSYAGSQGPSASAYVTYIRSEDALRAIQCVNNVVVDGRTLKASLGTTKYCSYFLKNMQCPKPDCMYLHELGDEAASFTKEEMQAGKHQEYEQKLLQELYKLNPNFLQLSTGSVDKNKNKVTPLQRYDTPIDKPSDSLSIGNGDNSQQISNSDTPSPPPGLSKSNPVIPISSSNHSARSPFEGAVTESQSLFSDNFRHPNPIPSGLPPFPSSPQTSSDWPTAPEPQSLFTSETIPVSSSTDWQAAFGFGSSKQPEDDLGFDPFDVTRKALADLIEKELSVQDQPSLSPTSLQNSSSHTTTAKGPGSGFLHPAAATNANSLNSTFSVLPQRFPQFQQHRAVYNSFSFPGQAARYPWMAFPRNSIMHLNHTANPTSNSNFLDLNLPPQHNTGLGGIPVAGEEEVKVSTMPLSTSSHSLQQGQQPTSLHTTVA
UniProt Q8N1G2: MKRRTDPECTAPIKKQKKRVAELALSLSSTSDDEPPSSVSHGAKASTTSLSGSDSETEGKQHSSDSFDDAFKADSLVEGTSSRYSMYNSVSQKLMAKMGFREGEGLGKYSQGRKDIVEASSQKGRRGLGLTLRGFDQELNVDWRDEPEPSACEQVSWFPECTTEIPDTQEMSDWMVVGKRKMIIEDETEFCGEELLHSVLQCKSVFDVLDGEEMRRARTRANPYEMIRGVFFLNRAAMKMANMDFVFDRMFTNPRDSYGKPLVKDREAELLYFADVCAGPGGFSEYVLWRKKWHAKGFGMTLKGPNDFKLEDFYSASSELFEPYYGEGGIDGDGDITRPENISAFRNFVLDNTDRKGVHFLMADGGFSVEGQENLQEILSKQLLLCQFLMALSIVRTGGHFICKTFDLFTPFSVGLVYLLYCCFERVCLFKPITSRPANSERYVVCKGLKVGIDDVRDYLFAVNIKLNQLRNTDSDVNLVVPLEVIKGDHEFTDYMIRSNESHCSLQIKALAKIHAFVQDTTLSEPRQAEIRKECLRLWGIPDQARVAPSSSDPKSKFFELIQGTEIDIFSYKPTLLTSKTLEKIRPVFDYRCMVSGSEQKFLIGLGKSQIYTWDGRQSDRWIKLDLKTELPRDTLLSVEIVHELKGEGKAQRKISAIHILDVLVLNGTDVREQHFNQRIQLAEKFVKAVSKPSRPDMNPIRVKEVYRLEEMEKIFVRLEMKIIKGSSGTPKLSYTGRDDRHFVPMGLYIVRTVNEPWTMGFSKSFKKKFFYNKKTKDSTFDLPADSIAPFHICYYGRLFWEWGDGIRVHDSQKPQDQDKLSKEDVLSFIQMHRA
UniProt Q14677: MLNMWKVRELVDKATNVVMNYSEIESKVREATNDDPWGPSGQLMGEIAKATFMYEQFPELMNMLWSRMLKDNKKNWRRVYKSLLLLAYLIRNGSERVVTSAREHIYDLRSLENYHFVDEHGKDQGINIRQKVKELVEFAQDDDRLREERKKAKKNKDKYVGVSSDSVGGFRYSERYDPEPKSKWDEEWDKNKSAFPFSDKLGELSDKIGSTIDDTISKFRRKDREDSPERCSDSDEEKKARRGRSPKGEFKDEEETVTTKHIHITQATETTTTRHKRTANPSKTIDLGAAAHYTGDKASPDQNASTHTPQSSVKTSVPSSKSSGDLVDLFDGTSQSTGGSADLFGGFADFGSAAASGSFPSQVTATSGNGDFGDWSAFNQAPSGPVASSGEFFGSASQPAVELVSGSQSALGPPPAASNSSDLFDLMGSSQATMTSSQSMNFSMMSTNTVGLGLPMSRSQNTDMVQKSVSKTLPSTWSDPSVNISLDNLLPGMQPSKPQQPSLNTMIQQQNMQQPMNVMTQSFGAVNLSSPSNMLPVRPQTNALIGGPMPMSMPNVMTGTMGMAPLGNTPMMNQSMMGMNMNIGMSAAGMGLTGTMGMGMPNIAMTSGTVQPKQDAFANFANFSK
UniProt P51790: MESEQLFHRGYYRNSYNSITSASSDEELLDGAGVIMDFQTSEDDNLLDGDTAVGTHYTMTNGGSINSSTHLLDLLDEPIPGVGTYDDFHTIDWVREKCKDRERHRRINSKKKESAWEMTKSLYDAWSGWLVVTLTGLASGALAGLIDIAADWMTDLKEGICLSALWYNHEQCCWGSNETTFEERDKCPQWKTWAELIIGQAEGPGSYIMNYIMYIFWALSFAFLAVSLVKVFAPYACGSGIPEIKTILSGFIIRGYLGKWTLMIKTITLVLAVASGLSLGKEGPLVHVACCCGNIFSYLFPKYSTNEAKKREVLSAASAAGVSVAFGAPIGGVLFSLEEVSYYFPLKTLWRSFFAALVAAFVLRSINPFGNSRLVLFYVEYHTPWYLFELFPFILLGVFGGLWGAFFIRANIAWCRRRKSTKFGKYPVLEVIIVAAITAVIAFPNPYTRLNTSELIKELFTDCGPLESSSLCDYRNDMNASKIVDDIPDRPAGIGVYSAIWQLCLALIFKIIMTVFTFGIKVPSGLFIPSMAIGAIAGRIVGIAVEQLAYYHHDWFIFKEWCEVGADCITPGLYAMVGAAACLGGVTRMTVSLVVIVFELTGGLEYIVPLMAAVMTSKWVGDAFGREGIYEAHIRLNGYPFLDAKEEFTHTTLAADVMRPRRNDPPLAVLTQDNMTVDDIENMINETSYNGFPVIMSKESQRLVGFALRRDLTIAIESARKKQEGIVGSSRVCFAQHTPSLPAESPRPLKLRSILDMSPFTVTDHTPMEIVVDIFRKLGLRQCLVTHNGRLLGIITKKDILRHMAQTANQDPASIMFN
UniProt Q8WUX9: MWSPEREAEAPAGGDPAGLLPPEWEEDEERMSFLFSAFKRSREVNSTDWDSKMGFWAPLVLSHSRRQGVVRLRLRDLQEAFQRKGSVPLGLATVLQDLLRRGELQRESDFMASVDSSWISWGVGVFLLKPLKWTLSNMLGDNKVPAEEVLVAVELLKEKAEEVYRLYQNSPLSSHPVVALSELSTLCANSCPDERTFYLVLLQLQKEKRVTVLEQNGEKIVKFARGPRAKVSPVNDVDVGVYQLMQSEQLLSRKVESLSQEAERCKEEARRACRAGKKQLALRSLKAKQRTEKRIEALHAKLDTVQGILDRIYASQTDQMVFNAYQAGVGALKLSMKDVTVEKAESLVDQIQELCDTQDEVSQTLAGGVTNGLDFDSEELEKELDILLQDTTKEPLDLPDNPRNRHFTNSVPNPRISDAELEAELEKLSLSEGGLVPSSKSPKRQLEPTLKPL
UniProt Q96KA5: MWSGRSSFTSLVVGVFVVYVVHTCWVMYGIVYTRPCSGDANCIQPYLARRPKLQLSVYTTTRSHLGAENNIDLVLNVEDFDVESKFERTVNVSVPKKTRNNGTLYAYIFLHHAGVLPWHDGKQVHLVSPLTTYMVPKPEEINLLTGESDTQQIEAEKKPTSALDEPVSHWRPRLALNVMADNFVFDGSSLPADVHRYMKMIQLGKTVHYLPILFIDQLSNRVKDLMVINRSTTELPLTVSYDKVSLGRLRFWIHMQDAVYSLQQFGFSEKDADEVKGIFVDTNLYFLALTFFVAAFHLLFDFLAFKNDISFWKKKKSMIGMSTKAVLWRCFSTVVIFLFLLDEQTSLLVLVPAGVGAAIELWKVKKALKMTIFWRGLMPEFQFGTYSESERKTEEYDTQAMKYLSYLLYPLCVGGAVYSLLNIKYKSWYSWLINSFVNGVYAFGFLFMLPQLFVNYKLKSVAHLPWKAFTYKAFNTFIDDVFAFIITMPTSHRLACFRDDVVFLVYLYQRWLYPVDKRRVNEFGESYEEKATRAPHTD

[2] = compound: CC1=C(C=C(C=C1)NC(=O)C2=CC(=CC=C2)N(C)C)NC(=O)C3=CC=C(C=C3)O
Method in brief: as §1

[3] = compound: CC1=CC=C(C=C1)SC2=C3C=C(SC3=CN=C2)C(=O)N
Method in brief: as §1

[4] = compound: CC1=NC(=CC=C1)C2=C(N=C(N2)C(C)(C)C)C3=CC4=NC=CN=C4C=C3
Method in brief: as §1

Nexturastat A = compound: CCCCN(Cc1ccc(C(=O)NO)cc1)C(=O)Nc1ccccc1 [Nexturastat A]
Method in brief: as §1

[5] = compound: CCCS(=O)(=O)Nc1ccc(F)c(C(=O)c2c[nH]c3ncc(Cl)cc23)c1F
Method in brief: as §1

[6] = compound: CCCc1cc(C)[nH]c(=O)c1CNC(=O)c1cc(-c2ccnc(N3CCN(C)CC3)c2)cc2c1cnn2C(C)C
Method in brief: as §1

givinostat = compound: CCN(CC)Cc1ccc2cc(COC(=O)Nc3ccc(C(=O)NO)cc3)ccc2c1 [givinostat]
Method in brief: as §1

barasertib = compound: CCN(CCCOc1ccc2c(Nc3cc(CC(=O)Nc4cccc(F)c4)[nH]n3)ncnc2c1)CCOP(=O)(O)O [barasertib]
Method in brief: as §1

volasertib = compound: CC[C@@H]1C(=O)N(C)c2cnc(Nc3ccc(C(=O)N[C@H]4CC[C@H](N5CCN(CC6CC6)CC5)CC4)cc3OC)nc2N1C(C)C [volasertib]
Method in brief: as §1

[7] = compound: CC[C@H](C)N1C=C(C2=C(C=C(C=C21)C3=CN=C(C=C3)N4CCNCC4)C(=O)NCC5=C(C=C(NC5=O)C)C)C
Method in brief: as §1

epoxomicin = compound: CC[C@H](C)[C@@H](C(=O)N[C@@H]([C@@H](C)O)C(=O)N[C@@H](CC(C)C)C(=O)[C@]1(CO1)C)NC(=O)[C@H]([C@@H](C)CC)N(C)C(=O)C [epoxomicin]
Method in brief: as §1

[8] = compound: CCn1cc(-c2ccnc3[nH]c(-c4cccc(CN(C)C)c4)cc23)c(-c2ccc(NC(=O)N(C)C)cc2)n1
Method in brief: as §1

[9] = compound: CN1CCC(CNc2ccc3ncc(-c4cccc(OC(F)(F)F)c4)n3n2)CC1
Method in brief: as §1

vemurafenib = compound: CCCS(=O)(=O)Nc1ccc(F)c(C(=O)c2c[nH]c3ncc(-c4ccc(Cl)cc4)cc23)c1F [vemurafenib]
Method in brief: as §1

[10] = compound: CC[C@@H]1C(=O)N(C)c2cnc(Nc3ccc(C(=O)NC4CCN(C)CC4)cc3OC)nc2N1C1CCCC1
Method in brief: as §1

[11] = compound: CN(C)CC(=O)Nc1ccc2[nH]c(=O)c3ccccc3c2c1
Method in brief: as §1

[12] = compound: CN1C2=C(C3=C1C(=O)N(N=C3)CC4=CC(=CC=C4)N)SC(=C2)S(=O)C
Method in brief: as §1

[13] = compound: CCn1c(C(=O)N(C2CC2)C2CC2)cc2c3c(ncn3C)c(Nc3cc(C)n(C)n3)nc21
Method in brief: as §1

rosiglitazone = compound: CN(CCOC1=CC=C(C=C1)C[C@H]2C(=O)NC(=O)S2)C3=CC=CC=N3 (racemic) [rosiglitazone]
Method in brief: as §1

Measured: log2 fold change

CHST10 (UniProt O43529)
inactive: [1] 0.067 | [2] -0.096 | [3] -0.092 | [4] -0.052 | Nexturastat A 0.05 | [5] -0.015 | [6] -0.097 | givinostat 0.069 | barasertib -0.025 | volasertib -0.146 | [7] 0.002 | epoxomicin -0.019 | [8] -0.021 | [9] -0.108

CLUH, A0A494C0R8
inactive: [1] 0.008 | [2] -0.077 | [3] -0.02 | [4] 0.124 | Nexturastat A 0.068 | vemurafenib -0.121 | [5] -0.072 | [6] 0.016 | givinostat 0.092 | barasertib -0.043 | [10] 0.183 | volasertib 0.42 | [7] 0.006 | epoxomicin -0.017 | [8] 0.078 | [11] 0.116 | [12] 0.101 | [9] 0.203

COASY isoform 2 (UniProt Q13057)
active: volasertib -0.266
inactive: [1] -0.002 | [2] -0.058 | [3] 0.057 | [4] 0.029 | Nexturastat A 0.021 | vemurafenib 0.054 | [5] 0.209 | [6] -0.007 | givinostat -0.04 | barasertib 0.029 | [10] -0.068 | [7] 0.027 | epoxomicin -0.013 | [8] -0.052 | [11] 0.038 | [12] -0.08 | [9] -0.132

CLUH (UniProt O75153)
inactive: [1] -0.017 | [2] -0.08 | [3] -0.002 | [4] -0.072 | Nexturastat A -0.022 | vemurafenib 0.047 | [5] -0.03 | [6] 0.049 | givinostat 0.016 | barasertib 0.033 | [10] 0.225 | [7] 0.015 | epoxomicin -0.028 | [8] -0.113 | [11] 0.094 | [12] 0.019
active: volasertib 0.632 | [9] 0.387

CNOT4 isoform 6 (UniProt O95628)
inactive: [1] -0.056 | [2] -0.012 | [3] 0.005 | [4] 0.023 | Nexturastat A -0.122 | vemurafenib -0.014 | [5] -0.007 | [6] -0.069 | givinostat -0.064 | barasertib 0.007 | [10] -0.008 | volasertib -0.109 | [7] 0.031 | epoxomicin 0.006 | [8] -0.056 | [11] 0.003 | [12] 0.028 | [9] -0.095

CMTR1 (UniProt Q8N1G2)
inactive: [1] -0.012 | [2] -0.003 | [3] -0.021 | [4] 0.083 | Nexturastat A -0.069 | vemurafenib 0.03 | [5] 0.005 | [6] -0.004 | givinostat -0.062 | barasertib 0.054 | [10] -0.053 | volasertib -0.199 | [7] 0.024 | epoxomicin 0.039 | [8] -0.049 | [11] 0.038 | [12] -0.055 | [9] -0.037

CLINT1 isoform 3 (UniProt Q14677)
active: [9] 0.259
inactive: [1] -0.082 | [2] -0.001 | [3] -0.094 | [4] -0.09 | Nexturastat A 0.122 | vemurafenib -0.049 | [5] -0.073 | [6] -0.019 | givinostat -0.01 | barasertib -0.047 | [10] 0.17 | volasertib 0.047 | [7] -0.01 | epoxomicin -0.038 | [8] 0.042 | [11] -0.06 | [12] 0.075

CLCN3 isoform 2 (UniProt P51790)
inactive: [1] -0.055 | [2] 0.002 | [3] 0.008 | [4] 0.061 | Nexturastat A -0.026 | vemurafenib 0 | [5] 0.03 | [6] -0.023 | givinostat 0.029 | barasertib -0.006 | [10] -0.047 | volasertib -0.113 | [7] 0.026 | epoxomicin 0.003 | [8] -0.032 | [11] 0.024 | [12] -0.028 | [9] -0.079

CLCN7 (UniProt P51798)
inactive: [1] 0.027 | [2] -0.026 | [3] 0.029 | [4] 0.006 | Nexturastat A -0.07 | vemurafenib 0.001 | [5] 0.038 | [6] -0.068 | givinostat -0.007 | barasertib -0.015 | volasertib -0.297 | [7] 0.031 | epoxomicin -0.001 | [8] -0.047 | [11] -0.01 | [12] 0.009
active: [10] -0.338 | [9] -1.05

CIT isoform 4 (UniProt O14578)
inactive: [1] -0.105 | [2] 0.017 | [3] -0.003 | [4] -0.032 | Nexturastat A -0.02 | vemurafenib -0.012 | [5] 0.01 | [6] 0.002 | givinostat 0.033 | barasertib 0.047 | [10] 0.068 | volasertib -0.225 | [7] 0.134 | epoxomicin 0.017 | [8] -0.033 | [11] -0.037 | [12] 0 | [9] -0.033

COL1A1 (UniProt P02452)
inactive: [1] -0.215 | [2] 0.567 | [3] -0.098 | [4] -0.194 | Nexturastat A 0.079 | vemurafenib -0.189 | [5] -0.401 | givinostat -0.151 | barasertib -0.036 | [10] -0.098 | volasertib 0.014 | epoxomicin -0.391 | [13] -0.135 | [11] -0.113 | rosiglitazone 0.247 | [12] 0.29

CIZ1 (UniProt Q9ULV3)
inactive: [1] -0.02 | [2] -0.027 | [3] -0.022 | [4] 0.059 | Nexturastat A 0.011 | vemurafenib -0.018 | [5] -0.007 | [6] -0.033 | givinostat 0.017 | barasertib 0.001 | [10] 0.071 | volasertib -0.022 | [7] 0.046 | epoxomicin 0.086 | [8] 0.017 | [11] -0.011 | [12] 0.015 | [9] -0.035

CLPX (UniProt O76031)
inactive: [1] 0.022 | [2] -0.013 | [3] -0.008 | [4] 0.012 | Nexturastat A 0 | vemurafenib -0.011 | [5] -0.013 | [6] -0.002 | givinostat 0.02 | barasertib -0.013 | [10] 0.039 | volasertib 0.192 | [7] -0.06 | epoxomicin -0.019 | [8] -0.022 | [11] 0.026 | [12] -0.01 | [9] 0.072

CNTN4 (UniProt Q8IWV2)
inactive: [1] -0.053 | [2] 0 | [3] 0.035 | [4] -0.244 | Nexturastat A 0.342 | vemurafenib -0.038 | [5] 0.058 | [6] 0.364 | givinostat 0.278 | barasertib 0.055 | [10] -0.016 | volasertib -0.14 | [7] -0.084 | epoxomicin 0.149 | [8] -0.157 | [11] 0 | [12] -0.077 | [9] -0.102

CHMP7 (UniProt Q8WUX9)
inactive: [1] -0.098 | [2] -0.061 | [3] 0.122 | [4] 0.082 | Nexturastat A 0.064 | [5] 0.279 | [6] 0.091 | givinostat 0.065 | barasertib 0.032 | [10] -0.015 | volasertib -0.379 | [7] 0.042 | epoxomicin 0.071 | [13] -0.004 | [8] 0.061 | rosiglitazone 0.162 | [12] 0.181 | [9] -0.158

2 neighbouring records out of the list so far, quoted:
COL1A1 (UniProt P02452)
inactive: [1] -0.215 | [2] 0.567 | [3] -0.098 | [4] -0.194 | Nexturastat A 0.079 | vemurafenib -0.189 | [5] -0.401 | givinostat -0.151 | barasertib -0.036 | [10] -0.098 | volasertib 0.014 | epoxomicin -0.391 | [13] -0.135 | [11] -0.113 | rosiglitazone 0.247 | [12] 0.29

CIZ1 (UniProt Q9ULV3)
inactive: [1] -0.02 | [2] -0.027 | [3] -0.022 | [4] 0.059 | Nexturastat A 0.011 | vemurafenib -0.018 | [5] -0.007 | [6] -0.033 | givinostat 0.017 | barasertib 0.001 | [10] 0.071 | volasertib -0.022 | [7] 0.046 | epoxomicin 0.086 | [8] 0.017 | [11] -0.011 | [12] 0.015 | [9] -0.035

Later entries

CLCN2 (UniProt P51788)
inactive: [1] -0.064 | [2] -0.018 | [3] 0.005 | [4] 0.071 | Nexturastat A -0.144 | vemurafenib 0.018 | [5] 0.061 | [6] 0.044 | givinostat -0.213 | barasertib 0.007 | volasertib -0.012 | [7] -0.109 | epoxomicin -0.117 | [13] -0.103 | [8] 0.078 | [11] -0.071 | rosiglitazone 0.069 | [12] -0.023 | [9] -0.004

CLPTM1L (UniProt Q96KA5)
inactive: [1] -0.014 | [2] 0.01 | [3] 0.03 | [4] 0.022 | Nexturastat A -0.032 | vemurafenib 0.045 | [5] 0.016 | [6] -0.015 | givinostat 0.009 | barasertib 0.021 | [10] -0.067 | volasertib -0.185 | [7] 0.005 | epoxomicin 0.013 | [8] -0.051 | [11] 0.023 | [12] -0.023 | [9] -0.188

CLCN3 (UniProt P51790)
inactive: [1] -0.03 | [2] 0.046 | [3] 0.015 | [4] 0.034 | vemurafenib 0.014 | [5] 0.009 | [6] -0.107 | givinostat 0.02 | barasertib 0.053 | [10] 0.036 | volasertib -0.095 | [7] -0.037 | epoxomicin -0.015 | [8] 0.065 | [11] 0.011 | [12] -0.051 | [9] -0.213
active: Nexturastat A -0.313

From the supplement of paper PMC10849652
